Reference: publication doi:10.1101/2024.04.25.591231
Results are given in words; binding and its absence hold for the method and conditions named. Some binding calls cover weakened binding; strength is not graded here.

Target: T1, Arabidopsis thaliana FIDGETIN-LIKE-1 (FIGL1) (Arabidopsis thaliana) (UniProt F4JEX5)
T1 sequence: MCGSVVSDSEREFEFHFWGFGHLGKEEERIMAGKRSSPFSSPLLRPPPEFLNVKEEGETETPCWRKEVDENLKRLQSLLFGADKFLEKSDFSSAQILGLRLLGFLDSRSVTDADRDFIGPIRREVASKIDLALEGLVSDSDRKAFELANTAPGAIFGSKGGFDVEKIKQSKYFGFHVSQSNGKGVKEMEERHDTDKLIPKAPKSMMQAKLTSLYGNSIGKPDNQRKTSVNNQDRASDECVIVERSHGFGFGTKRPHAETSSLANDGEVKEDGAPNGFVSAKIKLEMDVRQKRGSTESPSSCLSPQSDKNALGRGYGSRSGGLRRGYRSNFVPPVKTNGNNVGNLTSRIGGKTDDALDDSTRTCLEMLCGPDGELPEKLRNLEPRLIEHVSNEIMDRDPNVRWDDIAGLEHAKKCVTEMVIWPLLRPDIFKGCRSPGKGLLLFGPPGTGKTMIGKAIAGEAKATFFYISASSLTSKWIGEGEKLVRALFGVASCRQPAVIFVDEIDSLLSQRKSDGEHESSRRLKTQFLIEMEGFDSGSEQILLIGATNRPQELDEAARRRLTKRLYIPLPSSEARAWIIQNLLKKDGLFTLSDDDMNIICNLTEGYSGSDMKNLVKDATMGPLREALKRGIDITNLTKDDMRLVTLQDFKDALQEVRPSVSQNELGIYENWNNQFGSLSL
Assay: two-hybrid

binding: binds
B1: Arabidopsis thaliana XRCC2 (protein, UniProt Q682D3 1-372)
chain: MGDDEARSWIRGDETAKQMLSRVLKDRAFLLIPPLHRVPLRAGNVVEITGASTSAKTQILIQAAISCILPKTWNGIHYGGLGKLVLFLDLDCRFDVLRLSQMLKHRLLQANWLGNGAWWQLEESNVKSCKSAEEKTKTVFDEELYASCMKRFLYVRCYDSLELLSSLKTLHYRIQQQEACGSQVGVLMIDSIGAFHWTDRLSSSLALETHNRKSLSLTNVVETIVQELKKLLLVHSLVVLATKGTIYEEKYPANENNRKVSSNDHFSGNVASKAQQPPFREFMPSSWQAFVTHKIIIRKSADYQSLQTGQQNLLAYSLEWLQPQLSRIDRFIVDDVRKLTTIKPFYSKLLLIYIVIPASSSHAVWYCHCLVT
